Results published in the supplement of paper PMC12067093, “Discovery and optimisation of a covalent ligand for TRIM25 and its application to targeted protein ubiquitination” (Chemical Science, 2025).
This is one part of the list.

Chains of the proteins cited; added tags and fusions are not shown. Lines headed by an entry give the natural chain unless they say otherwise; changes in a name come on top.
UniProt Q9H0F7: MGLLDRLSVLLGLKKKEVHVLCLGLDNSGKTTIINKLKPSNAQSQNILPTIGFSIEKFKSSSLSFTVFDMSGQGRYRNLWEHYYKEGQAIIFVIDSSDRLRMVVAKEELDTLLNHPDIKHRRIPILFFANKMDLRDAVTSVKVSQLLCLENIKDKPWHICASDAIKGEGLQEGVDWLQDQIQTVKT
UniProt Q15052: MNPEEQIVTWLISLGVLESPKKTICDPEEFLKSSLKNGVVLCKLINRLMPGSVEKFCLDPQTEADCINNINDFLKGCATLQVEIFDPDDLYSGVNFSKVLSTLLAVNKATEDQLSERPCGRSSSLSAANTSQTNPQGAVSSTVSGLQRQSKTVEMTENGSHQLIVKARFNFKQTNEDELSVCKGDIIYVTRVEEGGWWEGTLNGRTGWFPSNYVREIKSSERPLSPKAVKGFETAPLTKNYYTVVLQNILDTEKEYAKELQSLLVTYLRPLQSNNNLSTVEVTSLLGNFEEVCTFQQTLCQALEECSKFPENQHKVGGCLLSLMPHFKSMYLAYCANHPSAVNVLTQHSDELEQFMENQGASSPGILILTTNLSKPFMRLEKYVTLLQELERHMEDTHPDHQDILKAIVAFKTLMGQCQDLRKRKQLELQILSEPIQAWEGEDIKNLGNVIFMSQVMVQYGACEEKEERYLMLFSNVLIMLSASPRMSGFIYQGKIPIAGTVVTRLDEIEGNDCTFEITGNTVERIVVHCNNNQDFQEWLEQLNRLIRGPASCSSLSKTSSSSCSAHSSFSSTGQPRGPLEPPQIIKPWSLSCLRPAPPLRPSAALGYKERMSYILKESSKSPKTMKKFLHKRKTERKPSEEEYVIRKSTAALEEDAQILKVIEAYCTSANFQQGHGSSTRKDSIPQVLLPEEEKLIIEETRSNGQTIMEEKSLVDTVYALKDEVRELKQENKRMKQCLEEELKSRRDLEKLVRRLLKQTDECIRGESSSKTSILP
UniProt P36404: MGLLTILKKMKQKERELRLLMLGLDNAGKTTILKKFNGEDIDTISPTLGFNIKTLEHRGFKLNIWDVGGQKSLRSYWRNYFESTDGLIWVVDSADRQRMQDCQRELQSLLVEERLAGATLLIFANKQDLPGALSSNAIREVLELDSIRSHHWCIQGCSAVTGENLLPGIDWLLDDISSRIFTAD
UniProt Q96P48: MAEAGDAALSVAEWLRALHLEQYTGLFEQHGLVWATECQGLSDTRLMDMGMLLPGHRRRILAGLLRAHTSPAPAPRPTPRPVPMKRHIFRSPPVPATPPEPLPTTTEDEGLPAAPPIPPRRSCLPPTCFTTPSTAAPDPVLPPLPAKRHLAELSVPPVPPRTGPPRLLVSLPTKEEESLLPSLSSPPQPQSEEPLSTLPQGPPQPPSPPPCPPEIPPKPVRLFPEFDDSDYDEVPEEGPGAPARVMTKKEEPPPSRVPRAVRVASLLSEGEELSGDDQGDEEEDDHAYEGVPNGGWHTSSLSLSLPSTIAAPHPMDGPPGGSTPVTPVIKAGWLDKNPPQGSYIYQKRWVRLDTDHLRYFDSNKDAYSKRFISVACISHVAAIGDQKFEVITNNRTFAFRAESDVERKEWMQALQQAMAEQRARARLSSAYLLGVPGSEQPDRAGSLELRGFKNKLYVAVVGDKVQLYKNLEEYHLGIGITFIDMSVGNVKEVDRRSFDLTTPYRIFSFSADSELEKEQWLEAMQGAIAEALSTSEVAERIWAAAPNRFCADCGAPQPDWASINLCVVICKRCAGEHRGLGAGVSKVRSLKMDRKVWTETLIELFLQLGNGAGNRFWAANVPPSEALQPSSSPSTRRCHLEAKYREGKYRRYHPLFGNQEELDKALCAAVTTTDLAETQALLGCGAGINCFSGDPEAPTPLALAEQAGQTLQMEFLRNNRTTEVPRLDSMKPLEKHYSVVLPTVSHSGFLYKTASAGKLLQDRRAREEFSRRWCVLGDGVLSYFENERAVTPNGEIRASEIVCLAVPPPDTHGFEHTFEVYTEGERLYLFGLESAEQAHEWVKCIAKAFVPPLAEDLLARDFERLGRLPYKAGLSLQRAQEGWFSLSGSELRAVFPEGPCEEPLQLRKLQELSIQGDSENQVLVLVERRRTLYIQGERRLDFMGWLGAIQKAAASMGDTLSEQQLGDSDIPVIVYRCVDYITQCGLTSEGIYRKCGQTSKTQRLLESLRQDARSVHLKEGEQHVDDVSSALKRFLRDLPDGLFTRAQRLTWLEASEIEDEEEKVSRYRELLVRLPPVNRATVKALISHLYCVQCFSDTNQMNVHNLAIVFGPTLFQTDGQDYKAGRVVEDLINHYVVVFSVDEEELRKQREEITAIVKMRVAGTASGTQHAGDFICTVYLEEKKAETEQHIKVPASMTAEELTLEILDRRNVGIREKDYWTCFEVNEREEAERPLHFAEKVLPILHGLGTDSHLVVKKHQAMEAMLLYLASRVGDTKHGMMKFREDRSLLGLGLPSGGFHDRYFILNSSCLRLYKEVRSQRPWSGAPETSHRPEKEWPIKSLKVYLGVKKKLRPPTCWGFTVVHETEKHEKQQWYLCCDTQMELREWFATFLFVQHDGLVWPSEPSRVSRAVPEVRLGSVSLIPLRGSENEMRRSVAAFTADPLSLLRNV
UniProt Q7Z2E3: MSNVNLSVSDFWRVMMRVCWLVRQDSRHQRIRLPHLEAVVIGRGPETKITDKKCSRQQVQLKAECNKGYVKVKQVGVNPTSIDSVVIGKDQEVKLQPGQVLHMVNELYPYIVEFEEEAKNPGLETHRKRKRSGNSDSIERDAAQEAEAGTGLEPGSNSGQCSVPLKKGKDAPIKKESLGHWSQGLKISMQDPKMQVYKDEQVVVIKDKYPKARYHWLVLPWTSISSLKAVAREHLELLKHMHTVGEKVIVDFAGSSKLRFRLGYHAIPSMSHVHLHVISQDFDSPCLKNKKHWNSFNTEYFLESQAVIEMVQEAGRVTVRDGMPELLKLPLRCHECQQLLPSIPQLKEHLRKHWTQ
UniProt Q9HC16: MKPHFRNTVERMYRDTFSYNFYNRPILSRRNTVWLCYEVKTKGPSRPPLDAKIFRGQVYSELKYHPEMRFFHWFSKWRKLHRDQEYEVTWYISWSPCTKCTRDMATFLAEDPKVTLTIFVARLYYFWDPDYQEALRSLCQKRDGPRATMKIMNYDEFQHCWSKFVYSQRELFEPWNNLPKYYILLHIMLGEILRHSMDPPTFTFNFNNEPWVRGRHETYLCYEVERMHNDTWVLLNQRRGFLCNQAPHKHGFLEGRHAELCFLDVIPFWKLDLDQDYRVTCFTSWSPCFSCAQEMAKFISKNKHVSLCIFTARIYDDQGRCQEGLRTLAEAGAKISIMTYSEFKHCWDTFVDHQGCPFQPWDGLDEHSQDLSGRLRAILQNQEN
UniProt O95376: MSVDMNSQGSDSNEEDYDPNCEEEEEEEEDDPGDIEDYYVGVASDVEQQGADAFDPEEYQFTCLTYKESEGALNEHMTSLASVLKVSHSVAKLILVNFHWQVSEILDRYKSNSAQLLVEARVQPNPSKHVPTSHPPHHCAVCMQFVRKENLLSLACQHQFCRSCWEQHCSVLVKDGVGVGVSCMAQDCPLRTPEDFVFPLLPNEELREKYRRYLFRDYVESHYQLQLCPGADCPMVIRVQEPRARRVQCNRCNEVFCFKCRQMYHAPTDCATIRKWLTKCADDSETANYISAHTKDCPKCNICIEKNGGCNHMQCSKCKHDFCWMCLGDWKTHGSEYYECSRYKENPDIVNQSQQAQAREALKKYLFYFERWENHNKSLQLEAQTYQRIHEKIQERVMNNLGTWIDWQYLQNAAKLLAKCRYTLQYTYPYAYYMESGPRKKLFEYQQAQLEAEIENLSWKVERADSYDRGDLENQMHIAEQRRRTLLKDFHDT
UniProt Q9Y6D6: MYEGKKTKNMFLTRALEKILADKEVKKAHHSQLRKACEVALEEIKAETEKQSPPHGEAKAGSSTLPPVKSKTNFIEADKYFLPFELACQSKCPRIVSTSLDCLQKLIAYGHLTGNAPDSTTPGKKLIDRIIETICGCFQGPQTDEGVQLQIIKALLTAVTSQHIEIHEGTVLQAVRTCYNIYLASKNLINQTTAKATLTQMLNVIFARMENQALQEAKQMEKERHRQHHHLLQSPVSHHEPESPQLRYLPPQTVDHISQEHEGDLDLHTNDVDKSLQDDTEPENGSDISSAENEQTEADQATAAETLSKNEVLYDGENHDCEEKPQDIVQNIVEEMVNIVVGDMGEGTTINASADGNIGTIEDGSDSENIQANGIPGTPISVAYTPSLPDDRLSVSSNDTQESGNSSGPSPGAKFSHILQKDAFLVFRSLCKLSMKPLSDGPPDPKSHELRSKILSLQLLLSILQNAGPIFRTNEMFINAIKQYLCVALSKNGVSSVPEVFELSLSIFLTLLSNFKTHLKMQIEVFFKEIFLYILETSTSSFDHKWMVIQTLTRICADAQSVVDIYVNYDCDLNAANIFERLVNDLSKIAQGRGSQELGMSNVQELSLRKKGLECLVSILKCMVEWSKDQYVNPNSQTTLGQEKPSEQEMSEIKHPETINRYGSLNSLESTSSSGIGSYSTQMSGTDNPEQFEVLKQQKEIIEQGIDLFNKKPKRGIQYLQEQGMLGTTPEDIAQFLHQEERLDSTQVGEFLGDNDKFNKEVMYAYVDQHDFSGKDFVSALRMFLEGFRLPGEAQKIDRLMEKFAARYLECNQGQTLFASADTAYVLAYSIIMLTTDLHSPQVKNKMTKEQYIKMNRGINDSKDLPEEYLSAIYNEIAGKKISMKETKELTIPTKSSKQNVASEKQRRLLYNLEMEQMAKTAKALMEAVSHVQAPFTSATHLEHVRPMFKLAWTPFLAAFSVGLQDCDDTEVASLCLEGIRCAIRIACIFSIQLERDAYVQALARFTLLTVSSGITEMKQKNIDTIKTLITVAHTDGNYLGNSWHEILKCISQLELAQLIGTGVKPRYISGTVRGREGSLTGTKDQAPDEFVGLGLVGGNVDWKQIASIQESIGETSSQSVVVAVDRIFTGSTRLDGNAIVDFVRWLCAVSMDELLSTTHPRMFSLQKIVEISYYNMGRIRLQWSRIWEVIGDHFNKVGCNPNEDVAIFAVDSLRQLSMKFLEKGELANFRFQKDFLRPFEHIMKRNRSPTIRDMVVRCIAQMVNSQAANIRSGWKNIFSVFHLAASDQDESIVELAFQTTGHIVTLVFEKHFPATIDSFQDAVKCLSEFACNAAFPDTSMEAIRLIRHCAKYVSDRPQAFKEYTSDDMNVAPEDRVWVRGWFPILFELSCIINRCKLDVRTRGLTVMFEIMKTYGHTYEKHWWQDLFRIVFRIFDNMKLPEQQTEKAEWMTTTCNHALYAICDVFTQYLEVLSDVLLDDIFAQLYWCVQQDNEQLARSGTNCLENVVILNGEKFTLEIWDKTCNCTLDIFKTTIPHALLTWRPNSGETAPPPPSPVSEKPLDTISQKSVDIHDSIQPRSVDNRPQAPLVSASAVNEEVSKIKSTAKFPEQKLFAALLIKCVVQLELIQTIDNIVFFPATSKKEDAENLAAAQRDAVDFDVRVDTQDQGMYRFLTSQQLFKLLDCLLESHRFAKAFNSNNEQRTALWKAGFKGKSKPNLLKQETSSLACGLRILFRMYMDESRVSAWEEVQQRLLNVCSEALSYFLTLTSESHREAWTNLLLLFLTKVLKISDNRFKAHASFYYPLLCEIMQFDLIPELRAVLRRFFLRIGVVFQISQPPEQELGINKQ
UniProt Q92888: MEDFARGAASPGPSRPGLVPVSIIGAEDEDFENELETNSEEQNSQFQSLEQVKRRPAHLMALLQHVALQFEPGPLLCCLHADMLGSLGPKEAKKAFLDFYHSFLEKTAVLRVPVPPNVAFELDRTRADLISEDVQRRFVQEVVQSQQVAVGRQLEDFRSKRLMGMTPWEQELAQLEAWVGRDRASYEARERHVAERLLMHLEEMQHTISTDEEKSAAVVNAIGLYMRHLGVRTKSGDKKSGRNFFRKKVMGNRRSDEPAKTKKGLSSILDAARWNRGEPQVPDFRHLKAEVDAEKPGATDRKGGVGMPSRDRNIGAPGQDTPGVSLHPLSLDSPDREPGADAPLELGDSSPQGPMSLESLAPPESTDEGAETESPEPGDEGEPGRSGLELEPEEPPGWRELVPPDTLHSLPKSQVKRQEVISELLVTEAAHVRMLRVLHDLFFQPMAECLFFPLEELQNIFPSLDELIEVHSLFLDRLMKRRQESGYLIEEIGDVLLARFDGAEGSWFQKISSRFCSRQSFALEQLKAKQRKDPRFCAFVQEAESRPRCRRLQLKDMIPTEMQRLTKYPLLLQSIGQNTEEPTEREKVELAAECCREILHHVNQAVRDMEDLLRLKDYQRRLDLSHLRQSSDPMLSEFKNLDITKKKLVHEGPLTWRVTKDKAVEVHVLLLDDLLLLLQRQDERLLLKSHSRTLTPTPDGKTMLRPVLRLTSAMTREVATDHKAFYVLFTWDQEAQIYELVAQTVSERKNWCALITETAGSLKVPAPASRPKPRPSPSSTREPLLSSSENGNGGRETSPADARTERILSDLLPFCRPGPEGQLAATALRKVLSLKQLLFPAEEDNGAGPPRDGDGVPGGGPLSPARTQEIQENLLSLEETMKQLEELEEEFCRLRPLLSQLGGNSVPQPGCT

Compound: CC1Cc2ccccc2N1C(=O)C1CCCN(C1)C(=O)CCl (mixture of isomers) [TRIM25 ligand 11 (diastereomer mixture)]
Experiment: probe-labelled cysteine peptide fold change vs DMSO (competition) (log2 fold change); higher = less target engagement (more negative = stronger competition)
Settings: THP-1, incubation time: 4 h
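Also: competitive chemoproteomic profiling in live THP-1 cells with an iodoacetamide desthiobiotin (IA-DTB) probe, comparing probe-labelled peptide intensities in compound-treated cells against DMSO-treated controls.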

Row | Target | probe-labelled cysteine peptide fold change (10 µM) | probe-labelled cysteine peptide fold change (50 µM)
1 | ARL6_Q9H0F7_148_VSQLLCLENIK (UniProt Q9H0F7) | -0.042 | 0.0128
2 | ARHGEF6_Q15052_564_TSSSSCSAHSSFSSTGQPR (UniProt Q15052) | 0.336 | -0.439
3 | ARL2_P36404_102_MQDCQR (UniProt P36404) | 0.0325 | -0.0232
4 | ARAP1_Q96P48_38_ALHLEQYTGLFEQHGLVWATECQGLSDTR (UniProt Q96P48) | -0.213 | -0.114
5 | ARHGEF6_Q15052_514_LDEIEGNDCTFEITGNTVER (UniProt Q15052) | 0.175 | -0.0916
6 | APTX_Q7Z2E3_333+336_CHECQQLLPSIPQLK (UniProt Q7Z2E3) | 0.159 | 0.0857
7 | ARID1A_O14497_1968_ILEDEPHSKDETPLCTLLDWQDSLAK (UniProt O14497) | -0.016 | -0.0153
8 | APTX_Q7Z2E3_286_LGYHAIPSMSHVHLHVISQDFDSPCLK (UniProt Q7Z2E3) | 0.213 | -0.0807
9 | ARHGEF40_Q8TER5_1233_EAGPELSSECR (UniProt Q8TER5) | 0.0578 | 0.0509
10 | APOBEC3G_Q9HC16_261_HAELCFLDVIPFWK (UniProt Q9HC16) | 0.00279 | -0.116
11 | ARIH2_O95376_183_DGVGVGVSCMAQDCPLR (UniProt O95376) | -0.227 | 0.0391
12 | ARHGEF18_Q6ZSZ5_692_QLHLEGMLCWK (UniProt Q6ZSZ5) | -0.154 | -0.024
13 | ARFGEF1_Q9Y6D6_1050_CISQLELAQLIGTGVKPR (UniProt Q9Y6D6) | -0.205 | -0.131
14 | ARHGAP27_Q6ZUM4_830_MLFQHLCR (UniProt Q6ZUM4) | 0.0529 | 0.0803
15 | APPL1_Q9UKG1_183_QHQTMMHYFCALNTLQYK (UniProt Q9UKG1) | 0.117 | -0.139
16 | ARMC6_Q6NXE6_297_AFLDNPGILSELCGTLSR (UniProt Q6NXE6) | -0.0364 | -0.145
17 | ARHGEF1_Q92888_595_VELAAECCR (UniProt Q92888) | -0.0599 | 0.149
18 | ARHGAP45_Q92619_153_AHECLGEALR (UniProt Q92619) | -0.0548 | -0.15
19 | ARHGAP26_Q9UNA1_767_ALYACK (UniProt Q9UNA1) | -0.0175 | 0.0363
20 | ARIH2_O95376_233_DYVESHYQLQLCPGADCPMVIR (UniProt O95376) | -0.0979 | 0.0662
21 | ARHGAP25_P42331_154_VAGTPCGVFGQR (UniProt P42331) | 0.0288 | -0.103
22 | ARAF_P10398_538_ISSNCPK (UniProt P10398) | -0.0373 | 0.0231

Random excerpt: two records from the list
Row | Target | probe-labelled cysteine peptide fold change (10 µM) | probe-labelled cysteine peptide fold change (50 µM)
3 | ARL2_P36404_102_MQDCQR (UniProt P36404) | 0.0325 | -0.0232
13 | ARFGEF1_Q9Y6D6_1050_CISQLELAQLIGTGVKPR (UniProt Q9Y6D6) | -0.205 | -0.131
